Measurements reported in patent US9815802B2, “Herbicidally active N-(1-methyltetrazol-5-yl)benzoic acid amides” (BAYER CROPSCIENCE AKTIENGESELLSCHAFT, priority 2014, dated 2017).
Some entries share one result that the patent states for a list of compounds. At least one structure is not confirmed: it was looked up by name or label, or the drawing left a doubt.

Experiments:
Echinocloa crusgalli = assay: Pre-emergence herbicidal action against ECHCG; type: in vivo, Echinochloa crus galli; settings: 320 g/ha, visual score after 3 weeks
Abutilon theophrasti = assay: Pre-emergence herbicidal action against ABUTH; type: in vivo; settings: 320 g/ha, visual score after 3 weeks
Amaranthus retroflexus = assay: Pre-emergence herbicidal action against AMARE; type: in vivo; settings: 320 g/ha, visual score after 3 weeks
Matricaria inodora [1] = assay: Pre-emergence herbicidal action against Matricaria inodora; type: in vivo; settings: 320 g/ha, visual score after 3 weeks
Matricaria inodora [2] = assay: Post-emergence herbicidal action against Matricaria inodora; type: in vivo; settings: 80 g/ha, visual assessment after about 3 weeks
Pharbitis purpureum = assay: Post-emergence herbicidal action against PHBPU; type: in vivo; settings: 80 g/ha, visual assessment after about 3 weeks
Stellaria media = assay: Post-emergence herbicidal action against STEME; type: in vivo; settings: 80 g/ha, visual assessment after about 3 weeks
Experimental: Post-Emergence Herbicidal Action Against Harmful Plants Seeds of monocotyledonous and dicotyledonous weed and crop plants are laid out in sandy loam in wood-fiber pots, covered with soil and cultivated in a greenhouse under good growth conditions. 2 to 3 weeks after sowing, the test plants are treated at the one-leaf stage. The compounds of the invention, formulated in the form of wettable powders (WP) or as emulsion concentrates (EC), are then sprayed onto the green parts of the plants in the form of an aqueous suspension or emulsion at a water application rate equating to 600 to 800 I/ha, with addition of 0.2% wetting agent. After the test plants have been left to stand in the greenhouse under optimal growth conditions for about 3 weeks, the action of the preparations is assessed visually in comparison to untreated controls (herbicidal action in percent (%): 100% activity=the plants have died, 0% activity=like control plants).

Viola tricolor = assay: Post-emergence herbicidal action against Viola tricolor; type: in vivo; settings: 80 g/ha, visual assessment after about 3 weeks
Veronica persica = assay: Post-emergence herbicidal action against Veronica persica; type: in vivo; settings: 80 g/ha, visual assessment after about 3 weeks

| SMILES | efficacy against Echinocloa crusgalli (Echinocloa crusgalli) | efficacy against Abutilon theophrasti (Abutilon theophrasti) | efficacy against Amaranthus retroflexus (Amaranthus retroflexus) | efficacy against Matricaria inodora (Matricaria inodora [1]) | efficacy against Matricaria inodora (Matricaria inodora [2]) | efficacy against Pharbitis purpureum (Pharbitis purpureum) | efficacy against Stellaria media (Stellaria media) | efficacy against Viola tricolor (Viola tricolor) | efficacy against Veronica persica (Veronica persica) |
| --- | --- | --- | --- | --- | --- | --- | --- | --- | --- |
| CCc1c(C(=O)Nc2nnnn2C)ccc(C)c1S(C)(=O)=O [1-032] | at least 80% | at least 80% | at least 80% | at least 80% | at least 90% | at least 90% | at least 90% | at least 90% | at least 90% |
| CCc1ccc(C(=O)Nc2nnnn2C)c(C)c1S(C)(=O)=O [1-012] | at least 80% | at least 80% | at least 80% | at least 80% | at least 90% | at least 90% | at least 90% | at least 90% | at least 90% |
| CCc1ccc(C(=O)Nc2nnnn2C)c(CC)c1S(C)(=O)=O [1-042] | at least 80% | at least 80% | at least 80% | at least 80% | at least 90% | at least 90% | at least 90% | at least 90% | at least 90% |
| CCc1ccc(C(=O)Nc2nnnn2C)c(CC)c1S(=O)(=O)CC [1-044] | at least 80% | at least 80% | at least 80% | at least 80% | at least 90% | at least 90% | at least 90% | at least 90% | at least 90% |
| Cc1c(C(=O)Nc2nnnn2C)ccc(C(C)C)c1S(C)(=O)=O [1-022] | at least 80% | at least 80% | at least 80% | at least 80% | at least 90% | at least 90% | at least 90% | at least 90% | at least 90% |
| CCc1ccc(C(=O)Nc2nnnn2C)c(CC)c1[S+](C)[O-] (centres unmarked) [1-041] | at least 80% | at least 80% | at least 80% | at least 80% | at least 90% | at least 90% | at least 90% | at least 90% | at least 90% |
| CCS(=O)(=O)c1c(C)ccc(C(=O)Nc2nnnn2C)c1C [1-004] | at least 80% | at least 80% | at least 80% | at least 80% | at least 90% | at least 90% | at least 90% | at least 90% | at least 90% |
| Cc1ccc(C(=O)Nc2nnnn2C)c(C)c1[S+](C)[O-] (centres unmarked) [1-001, 2,4-Dimethyl-3-(methylsulfinyl)-N-(1-methyl-1H-tetrazol-5-yl)benzamide] | at least 80% | at least 80% | at least 80% | at least 80% | at least 90% | at least 90% | at least 90% | at least 90% | at least 90% |
| Cc1c(C(=O)Nc2nnnn2C)ccc(C(C)C)c1[S+](C)[O-] (centres unmarked) [1-021] | at least 80% | at least 80% | at least 80% | at least 80% | at least 90% | at least 90% | at least 90% | at least 90% | at least 90% |
| CCc1ccc(C(=O)Nc2nnnn2C)c(CC)c1[S+]([O-])CC (centres unmarked) [1-043] |  |  |  |  | at least 90% | at least 90% | at least 90% | at least 90% | at least 90% |
| CCc1ccc(C(=O)Nc2nnnn2C)c(C)c1[S+](C)[O-] (centres unmarked) [1-011] | at least 80% | at least 80% | at least 80% | at least 80% | at least 90% | at least 90% | at least 90% | at least 90% | at least 90% |
